Measurements reported in PubChem BioAssay AID527 (NMMLSC, 2006).
The other results are listed elsewhere or left out. Some results for these compounds are left out of this collection, so the calls shown say nothing about other tests.

test: blockers of AIP-driven agr signalling in S. aureus – RNAIII-GFP reporter, flow cytometry, primary screen (AID 527);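 note: 0% = AIP-stimulated control and 100% = unstimulated bacteria without AIP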; conditions: S. aureus RN6390 RNAIII-GFP reporter, AIP-induced, flow cytometry 3 h; measured here: inhibition of GFP MFI; at 2 µM; stronger effect = higher value

| Compound | inhibition |
| --- | --- |
| O=C(OC1CN2CCC1CC2)C(CO)(c1ccccc1)c1ccccc1 (stereo unspecified) | 6.7% |
